# Measured values from PubChem BioAssay AID1671190 (National Center for Advancing Translational Sciences (NCATS), 2021).
# Chains of the proteins cited; added tags and fusions are not shown. Lines headed by an entry give the natural chain unless they say otherwise; changes in a name come on top.
# UniProt P18054: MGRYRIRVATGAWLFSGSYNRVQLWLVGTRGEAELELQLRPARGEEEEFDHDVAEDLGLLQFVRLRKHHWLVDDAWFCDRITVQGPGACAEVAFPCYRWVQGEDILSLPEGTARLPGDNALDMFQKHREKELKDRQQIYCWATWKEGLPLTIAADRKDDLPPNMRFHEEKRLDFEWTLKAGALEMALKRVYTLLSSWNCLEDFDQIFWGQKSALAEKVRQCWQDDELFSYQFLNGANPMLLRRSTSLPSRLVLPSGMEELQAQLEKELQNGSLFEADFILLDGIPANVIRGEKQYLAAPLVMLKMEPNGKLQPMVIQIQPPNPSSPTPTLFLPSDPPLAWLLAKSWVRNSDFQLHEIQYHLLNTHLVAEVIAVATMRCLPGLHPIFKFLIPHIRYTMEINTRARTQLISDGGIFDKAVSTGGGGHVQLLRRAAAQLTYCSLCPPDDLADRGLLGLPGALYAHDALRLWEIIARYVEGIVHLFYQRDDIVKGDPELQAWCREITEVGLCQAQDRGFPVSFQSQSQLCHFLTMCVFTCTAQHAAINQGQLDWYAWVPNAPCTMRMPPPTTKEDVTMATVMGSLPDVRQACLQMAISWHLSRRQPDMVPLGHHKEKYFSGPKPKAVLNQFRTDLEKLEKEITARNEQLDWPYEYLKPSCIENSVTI
# Several values for one entry are separate records, joined by “and”; a condition that tells them apart may be missing. Equal values may be shown once. About 6,100 (1.1%) of roughly 580,000 compounds were called active. Inconclusive results, whose numbers are uncertain, are shown with a selection of clear calls. Calls follow the shape of the dose curve; as a rule, active = well fitted inhibition curve with a large enough effect; inconclusive = small, poorly fitted or top-dose-only effect, or another doubt; inactive = no such curve, though single readings can be large or run the other way. Potencies of inconclusive entries are doubtful fits and often do not repeat.
# Biological target: Polyunsaturated fatty acid lipoxygenase ALOX12 (Homo sapiens) (UniProt P18054)
# Test: Primary qHTS assay for inhibitors of human arachidonate 12S-lipoxygenase (ALOX12): Round 2
# Conditions: purified 12hLO, xylenol orange hydroperoxide absorbance; activity change, negative = inhibition: at 108 µM (top of the series) unless noted
# In short: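 Purified human 12hLO (150 nM final) in 25 mM Hepes, 0.01% Triton X-100, pH 7.0 was preincubated 15 min at room temperature with compound. Then 40 uM arachidonic acid was added, 30 min. Hydroperoxide was read by Fe-XO absorbance ratio 573/405 nm.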
# % is scaled to controls: 0 for no effect and ±100 for the full control effect; potency is read from the fitted curve at half-maximal effect.
SMILES,Potency,"activity change, negative = inhibition"
CCn1cc(C(=O)OCC(=O)Nc2cccc(C(C)=O)c2)c(=O)c2ccc(C)nc21,"inconclusive: 79.4 µM [inhibitor, partial curve, poor fit]",–
CCOc1ccc(C2CC(=O)Nc3c2c(=O)nc(SCc2ccccc2C)n3C)cc1OC (stereo unspecified),–,inactive: 4.98%
Cc1nn(-c2ccccc2)c(C)c1/C=N/NC(=O)c1cc(-c2ccccc2)n[nH]1,–,inactive: 11.8%
Cc1c(C(=O)N(C)C)sc(NC(=O)c2cc([N+](=O)[O-])cc([N+](=O)[O-])c2)c1C#N,"inconclusive: 56.2 µM [inhibitor, partial curve, poor fit]",–
COCCNc1nc(NCc2ccc(NC(C)=O)cc2)c2sc(-c3ccccc3)cc2n1,"inconclusive: 44.7 µM [inhibitor, partial curve, poor fit]",–
Cc1ccc(SC(Sc2ccc(C)cc2)(C(=O)c2ccccc2)C(=O)c2ccccc2)cc1,"inconclusive: 44.7 µM [inhibitor, partial curve, poor fit]",–
CCOC(=O)c1c(S(=O)(=O)N2CCCC(C(=O)Nc3cccc(C)n3)C2)c(C)n(C)c1C (stereo unspecified),inactive,–
CC(Oc1ccc(Cl)cc1)C(=O)N1CCCc2ccccc21 (stereo unspecified),"inconclusive: 100 µM [inhibitor, single point]",–
COC(=O)c1cnc(N2CCN(c3ccccn3)CC2)c2ccccc12,–,inactive: -4%
COc1ccc(Cn2c(=O)c3oc4ccccc4c3n(Cc3ccc(Cl)cc3)c2=O)cc1,–,inactive: -20.1%
Oc1ccc(C2(c3ccccc3O)CCCCC2)cc1,"inconclusive: 50.1 µM [inhibitor, partial curve, poor fit]",–
CCn1nc(NC(=O)C(C)C)c2cc3ccc(C)cc3nc21,–,inactive: 4.23%
CCCCNc1nc(Nc2ccc(C)c(Cl)c2)c2cnn(C)c2n1,"inconclusive: 50.1 µM [inhibitor, partial curve, poor fit]",–
COc1cc(C(=O)N/N=C(\C)c2ccccn2)cc(OC)c1OC,"inconclusive: 44.7 µM [inhibitor, single point]",–
COc1ccc2nc(NC(=O)CNS(=O)(=O)c3cccs3)sc2c1,"inconclusive: 14.1 µM [inhibitor, partial curve]",–
COc1ccccc1C(=O)Nc1ccc2oc(=O)ccc2c1,"inconclusive: 2.51 µM [inhibitor, single point]",–
O=C(COC(=O)c1n[nH]c(=O)c2ccccc12)NCc1ccccc1,"inconclusive: 63.1 µM [inhibitor, partial curve, poor fit]",–
COc1ccccc1NC(=O)Cn1cc(C(=O)C2CC2)c2ccccc21,"inconclusive: 126 µM [inhibitor, single point]",–
COc1ccc(NC2CCCN(C(=O)C(=O)CC(C)C)C2)cc1OC (stereo unspecified),–,inactive: -9.45%
Cn1c(-c2cccc(F)c2)cc2c(Nc3cccc(NS(C)(=O)=O)c3)nccc21,"inconclusive: 25.1 µM [inhibitor, partial curve, poor fit]",–
COC(=O)c1cc(C2CC2)nc2c1c(C)nn2CC(=O)NC(C)C,–,inactive: 14.6%
O=c1c2c(n(CCOc3ccccc3)n1-c1ccccc1)CN(Cc1ccc3c(c1)CCO3)CC2,"inconclusive: 20 µM [inhibitor, full curve]",–

# Five structures from above, ordered by molecular weight, high to low:
SMILES,Potency,"activity change, negative = inhibition"
CCOc1ccc(C2CC(=O)Nc3c2c(=O)nc(SCc2ccccc2C)n3C)cc1OC (stereo unspecified),–,inactive: 4.98%
CCCCNc1nc(Nc2ccc(C)c(Cl)c2)c2cnn(C)c2n1,"inconclusive: 50.1 µM [inhibitor, partial curve, poor fit]",–
O=C(COC(=O)c1n[nH]c(=O)c2ccccc12)NCc1ccccc1,"inconclusive: 63.1 µM [inhibitor, partial curve, poor fit]",–
COc1cc(C(=O)N/N=C(\C)c2ccccn2)cc(OC)c1OC,"inconclusive: 44.7 µM [inhibitor, single point]",–
Oc1ccc(C2(c3ccccc3O)CCCCC2)cc1,"inconclusive: 50.1 µM [inhibitor, partial curve, poor fit]",–

# Additional results follow.

SMILES,Potency,"activity change, negative = inhibition"
O=C(C1=NN[C@@H]2C(=O)N(c3cccc(F)c3)C(=O)[C@H]12)c1cnccn1,"inconclusive: 126 µM [inhibitor, partial curve, poor fit]",–
COc1ccc2cc(C3CC(c4ccco4)=NN3S(C)(=O)=O)c(Cl)nc2c1 (stereo unspecified),active: 35.5 µM,–
O=C(CCc1nc2ccccc2s1)NCc1ccccc1F,"inconclusive: 4.47 µM [inhibitor, full curve, poor fit] and inconclusive: 6.31 µM [inhibitor, full curve, poor fit]",–
COc1ccc2nc(C)cc(N/N=C/c3cccc(OC)c3O)c2c1,"inconclusive: 44.7 µM [inhibitor, partial curve, poor fit]",–
Nc1ccccc1C#Cc1ccc([N+](=O)[O-])cc1,"inconclusive: 14.1 µM [inhibitor, partial curve, poor fit]",–
Cc1cc(=O)[nH]c(SCC(=O)Nc2ccc3c(c2)OCCO3)n1,"inconclusive: 35.5 µM [inhibitor, single point]",–
NC(=O)c1ccc(NC(=O)COC(=O)CCC(=O)c2ccc(Cl)cc2)cc1,–,inactive: -19.1%
Cc1cc(=O)[nH]c(SCC(=O)Nc2nnc(SCc3ccccc3)s2)n1,–,inactive: -15.8%
Cc1ccccc1C1CCCN1C(=O)c1cc(-c2cccs2)on1 (stereo unspecified),–,inactive: -26.1%
O=C(NCCC1=CCCCC1)C(=O)NCC(c1ccco1)N1CCN(c2ccc(F)cc2)CC1 (stereo unspecified),–,inactive: -19%
Cc1ccc2c(c1)nnn2C1CCN(S(=O)(=O)c2ccc(C(=O)O)cc2)CC1,–,inactive: -5.16%
COC(=O)C(Cc1cncn1COCc1ccccc1)NC(=O)OC(C)(C)C (stereo unspecified),–,inactive: 0%
Cc1ccc(NC(C)C(=O)Nc2sccc2C#N)cc1 (stereo unspecified),"inconclusive: 39.8 µM [inhibitor, partial curve, poor fit]",–
Cc1c2ccccc2c(CSC(=N)N)c2ccccc12,"inconclusive: 12.6 µM [inhibitor, partial curve, poor fit]",–
O=C(COc1ccc(Br)cc1Cl)NC(=S)Nc1ccccn1,"inconclusive: 8.91 µM [inhibitor, full curve, poor fit]",–
O=C(Oc1c(Br)cc(C(=S)N2CCOCC2)cc1Br)c1ccc(Cl)cc1,"inconclusive: 89.1 µM [inhibitor, single point]",–
CN(Cc1ccccc1)C(=O)c1cn2ccnc(-c3ccccc3)c2n1,"inconclusive: 10 µM [inhibitor, full curve, poor fit]",–
O=S1(=O)CC(N2CCN(CCO)CC2)CN1Cc1cn(Cc2ccc(Cl)cc2)nn1 (stereo unspecified),active: 25.1 µM,–
O=C1NC[C@H](Cc2ccccc2)N(C[C@H]2CCCN2C[C@H](Cc2ccc(O)cc2)N2C[C@H](Cc3ccc(O)cc3)N(CC3CCCCCC3)C(=O)C2=O)C1=O,active: 15.8 µM,–
COCCNC(=O)CCc1c(C)nn(-c2ccccc2)c1Oc1ccc(F)cc1F,"inconclusive: 11.2 µM [inhibitor, partial curve, poor fit]",–
COCCn1cnnc1SCc1ccc(Cl)s1,"inconclusive: 28.2 µM [inhibitor, partial curve, poor fit]",–
CC(C)Oc1nnc(SCC(=O)NCc2ccccc2)s1,–,inactive: -0.054%

SMILES,Potency,"activity change, negative = inhibition"
O=C(CSc1ccc(Cl)cc1)Nc1nnc(-c2cccc([N+](=O)[O-])c2)s1,–,inactive: -5%
Cc1ccc([S+](=O)([O-])N2CCC3(CC2)C(=O)NCN3Cc2ccc(Cl)cc2)cc1,"inconclusive: 25.1 µM [inhibitor, full curve, poor fit]",–
COc1ccc(Cn2ccc3nc(C)c(C(=O)NCc4ccc(F)cc4)cc3c2=O)cc1,–,inactive: -13.8%
O=C(O)C1CCCN(C(=O)c2cccc(C(F)(F)F)c2)C1 (stereo unspecified),"inconclusive: 6.31 µM [inhibitor, full curve, poor fit]",–
N#Cc1cccc(C(=O)Nc2ccc(Cl)c(C(F)(F)F)c2)c1,"inconclusive: 39.8 µM [inhibitor, partial curve, poor fit]",–
COc1ccc(NC(=O)N(C)C[C@@H]2OCCCC[C@@H](C)Oc3ccc(NC(=O)NC4CCCCC4)cc3C(=O)N([C@H](C)CO)C[C@@H]2C)cc1,"inconclusive: 112 µM [inhibitor, single point]",–
S=c1[nH]c(-c2ccccc2)cn1/N=C/c1ccc(Br)cc1,active: 39.8 µM,–
Cc1cc(C(=O)N(Cc2nnc(-c3ccc(Cl)cc3)o2)C(C)C)c2ccccc2n1,"inconclusive: 2.24 µM [inhibitor, full curve, poor fit]",–
Cc1cccc(C(=O)NCc2ccco2)c1,–,inactive: -22.6%
O=C(O)CCC(=O)N1CCC2(Cc3ccccc3N(C(=O)c3ccc(Cl)cc3)C2)C1 (stereo unspecified),"inconclusive: 2.85 µM [inhibitor, partial curve, poor fit]",–
CC1CC(C)CN(C(=O)/C=C/c2ccc([N+](=O)[O-])s2)C1 (stereo unspecified),"inconclusive: 0.794 µM [inhibitor, partial curve, poor fit]",–
Cc1oc2cc(OC(=O)c3ccco3)ccc2c(=O)c1-c1ccc(Br)cc1,"inconclusive: 39.8 µM [inhibitor, single point]",–
COc1cccc(-n2cc3c(=O)n(C)c(=O)n(C)c3c2)c1,"inconclusive: 28.2 µM [inhibitor, partial curve, poor fit]",–
Cc1c(C(=O)c2ccccc2)oc2ccc(F)cc12,"inconclusive: 44.7 µM [inhibitor, partial curve]",–
O=C(NC1CCCC1)C(c1ccc(F)cc1)N(Cc1ccccc1Cl)C(=O)CCl (stereo unspecified),"inconclusive: 63.1 µM [inhibitor, partial curve, poor fit]",–
CCOC(=O)c1c(C)oc(NC(=O)c2cc(-c3ccc(OC)cc3)on2)c1C#N,–,inactive: 31.8%
N#CC1=C2C=Cc3ccccc3N2CCCC1=O,"inconclusive: 35.5 µM [inhibitor, partial curve, poor fit]",–
Cc1nc2ccccc2c(C)c1CC(=O)N(CC(C)C)c1c(N)n(Cc2ccccc2)c(=O)[nH]c1=O,–,inactive: -24.4%
Cc1ccc(NC(=O)c2sc3nc4c(cc3c2N)CN(Cc2ccccc2)CC4)cc1,"inconclusive: 56.2 µM [inhibitor, partial curve, poor fit]",–
COc1ccccc1NC(=O)C1C2CCCCC21 (stereo unspecified),"inconclusive: 39.8 µM [inhibitor, partial curve, poor fit]",–
Cc1ccn2cc(-c3cccc(S(=O)(=O)N4CCCCC4)c3)nc2c1,–,inactive: -5.45%
CCCNC(=O)C1COC2(CCN(C(=O)c3ccco3)CC2)N1C(=O)c1ccc(F)cc1 (stereo unspecified),–,inactive: 15.6%
